Test results as given in paper PMC6697737.

Experiments:
[1] = biological target: T1, MNS3-GFP (Arabidopsis ER-α-mannosidase I fused to GFP) (Arabidopsis thaliana) (UniProt Q93Y37); assay: co-IP; GFP baits co-expressed with mRFP fusions in N. benthamiana leaves; extracts in 1x PBS, 1% Triton X-100, protease inhibitors; GFP-Trap-A beads, 60-90 min at 4 °C; immunoblot with anti-GFP and anti-mRFP
T1 sequence: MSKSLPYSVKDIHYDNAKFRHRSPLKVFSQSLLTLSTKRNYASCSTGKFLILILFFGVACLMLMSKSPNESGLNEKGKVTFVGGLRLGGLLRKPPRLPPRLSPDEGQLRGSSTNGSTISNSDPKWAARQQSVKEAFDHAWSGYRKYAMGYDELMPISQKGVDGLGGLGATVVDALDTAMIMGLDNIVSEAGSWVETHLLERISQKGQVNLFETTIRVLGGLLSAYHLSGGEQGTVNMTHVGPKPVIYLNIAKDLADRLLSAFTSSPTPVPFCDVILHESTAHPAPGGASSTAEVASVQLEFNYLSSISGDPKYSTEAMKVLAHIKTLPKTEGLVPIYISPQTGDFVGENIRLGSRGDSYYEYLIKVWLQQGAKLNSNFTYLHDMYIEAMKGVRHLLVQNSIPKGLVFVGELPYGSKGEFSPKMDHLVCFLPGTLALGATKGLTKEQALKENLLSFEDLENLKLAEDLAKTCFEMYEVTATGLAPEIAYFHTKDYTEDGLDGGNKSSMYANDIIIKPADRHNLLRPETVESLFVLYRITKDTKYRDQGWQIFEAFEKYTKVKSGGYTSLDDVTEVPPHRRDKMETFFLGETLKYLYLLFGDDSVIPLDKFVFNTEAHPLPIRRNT

[2] = biological target: T2, MNS3-GFP-HDEL (full-length MNS3 C-terminally tagged with GFP and the ER retrieval signal HDEL) (Arabidopsis thaliana) (UniProt Q93Y37); assay: as above
T2 sequence: T1 sequence

binding [1]: binds | binding [2]: binds
Substance: GnTI-mRFP (β1,2-N-acetylglucosaminyltransferase I fused to mRFP) (enzyme)

These are yes or no findings as the source states them, for the method shown. Binding seen in cells or lysates may run through a third protein. Binding can be weak; no strength is given. Where a sequence is shown, tags or fusion partners need not be part of it.
